This note sets out measurements from publication PMC4857404.

Sequences of proteins named here, by UniProt entry; tags and fusion partners are left off. A change or cut given only in a name is not applied to a line headed by its entry. A line that says so, or that is headed by a name, gives the form on record, which may keep a tag or linker. Residues count along the entry.
UniProt Q9NTX7, residues 92-168: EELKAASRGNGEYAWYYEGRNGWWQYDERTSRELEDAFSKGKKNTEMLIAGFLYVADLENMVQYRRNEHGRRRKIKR
GST-WWE^R164A mutant control (Q9NTX7, form named): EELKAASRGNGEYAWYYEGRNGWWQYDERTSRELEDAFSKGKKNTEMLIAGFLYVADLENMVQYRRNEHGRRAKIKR
UniProt O35625: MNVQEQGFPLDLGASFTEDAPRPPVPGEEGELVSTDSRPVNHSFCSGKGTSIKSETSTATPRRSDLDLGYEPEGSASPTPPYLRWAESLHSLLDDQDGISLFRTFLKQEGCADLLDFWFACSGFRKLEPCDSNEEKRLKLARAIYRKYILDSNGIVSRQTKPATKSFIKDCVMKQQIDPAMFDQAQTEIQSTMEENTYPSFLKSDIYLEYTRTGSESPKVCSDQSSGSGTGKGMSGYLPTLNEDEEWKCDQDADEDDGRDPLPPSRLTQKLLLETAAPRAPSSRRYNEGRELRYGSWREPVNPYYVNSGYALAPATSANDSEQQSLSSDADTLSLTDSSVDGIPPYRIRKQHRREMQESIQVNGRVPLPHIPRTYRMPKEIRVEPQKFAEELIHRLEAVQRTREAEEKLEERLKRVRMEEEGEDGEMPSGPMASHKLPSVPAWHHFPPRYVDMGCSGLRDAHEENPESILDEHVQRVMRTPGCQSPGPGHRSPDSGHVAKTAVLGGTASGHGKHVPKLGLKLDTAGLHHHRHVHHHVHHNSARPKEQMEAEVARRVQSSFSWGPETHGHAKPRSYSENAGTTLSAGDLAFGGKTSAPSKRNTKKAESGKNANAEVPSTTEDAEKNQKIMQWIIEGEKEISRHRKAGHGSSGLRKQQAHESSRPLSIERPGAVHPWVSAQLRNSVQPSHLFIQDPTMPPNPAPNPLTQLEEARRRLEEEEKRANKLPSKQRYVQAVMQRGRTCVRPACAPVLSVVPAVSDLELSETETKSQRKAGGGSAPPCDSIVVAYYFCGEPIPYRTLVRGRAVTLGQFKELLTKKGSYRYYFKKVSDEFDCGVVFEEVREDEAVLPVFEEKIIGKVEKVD

In test [1] the target is GST-WWE (Trp-Trp-Glu (WWE) domain of the RING-type E3 ubiquitin ligase RNF146/Iduna coupled to glutathione S-transferase) (UniProt Q9NTX7). Briefly: pull-down; GST-WWE or GST-WWE^R164A beads incubated overnight at 4 °C with lysates of HEK293T cells (transfected with Flag-Axin1 or Flag-Axin1ΔTBD; or untransfected, Wnt3A 0.5 h), S2R+ cells (Wg conditioned medium 1 h; white dsRNA control) or Drosophila embryos (stages 4-5 and 9); lysis or RIPA buffer with 1 μM ADP-HPD, protease and phosphatase inhibitors; four washes (50 mM Tris-HCl pH 8.0, 150 mM NaCl, 1% NP-40); immunoblot; only the target purified.

In test [2] the target is GST-WWE^R164A mutant control (UniProt Q9NTX7). Described as above.

These are yes or no findings as the source states them, for the method shown. Binding seen in cells or lysates may run through a third protein.

“Flag-mouse Axin1ΔTBD (from UniProt O35625)”: the binding entry in test [1] and in test [2] was “no binding” in each case.
